# In PubChem BioAssay AID2685 (National Center for Advancing Translational Sciences (NCATS), 2010):
# In all, about 320,000 compounds went through this assay and about 2,100 (0.66%) were called active. Inconclusive means that the source gave no clear call. Such entries were picked first, then a sample of the others. The call rests on the fitted dose curve; in most records, active means well fitted inhibition curve with a large enough effect in the signal ratio, with a control signal flat (not every such curve was filed as active); inconclusive means small, poorly fitted or top-dose-only effect, or effect the other way, or a change in a side signal; inactive means flat fitted curve, though single readings scatter; the % refers to the signal ratio. A potency beside an inconclusive call is a rough fit, not a confirmed value.
# Experiment: qHTS Assay for Lipid Storage Modulators in Drosophila S3 Cells
# Details: BODIPY lipid droplet fluorescence, 18-24 h, cells fed with added oleic acid; lipid storage change, negative = inhibition: at 46.1 µM (top of the series) unless noted
# Procedure, shortened: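 Laser-scanning cytometry quantifies lipid droplet accumulation (500–530 nm total intensity; droplet/cell object ratio) in oleic acid-fed (400 uM added) Drosophila S3 cells treated with a concentration series. 20 uM Triacsin C defined 100% inhibition.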
# On the % scale 0 is the no-effect control and ±100 the full control effect; potency means the concentration at half of the fitted maximal effect.
Compound,"lipid storage change, negative = inhibition",Potency
CC1CCC(NC(=O)CN2C(=O)NC(C)(C)C2=O)CC1 (stereo unspecified),inconclusive: -5.13%,
O=C(/C=C/c1cccs1)Nc1ccncc1,inconclusive: -3.12%,
CCN1CCN(C(=O)C2CCN(Cc3cc(Cl)ccc3O)CC2)CC1,inconclusive: 0.88%,
CCC(=O)N1CCN(c2nc(-c3ccccc3)c3c(c2C#N)CCCC3)CC1,inconclusive: 1.08%,
COc1ccc(Cl)cc1C(=O)NNC(=O)C1COc2ccccc2O1 (stereo unspecified),inconclusive: 3.68%,
CCCc1cc(=O)oc2cc(OCC(=O)N3C[C@H]4C[C@@H](C3)c3cccc(=O)n3C4)c(Cl)cc12,inactive: -2.74%,
CCOC(=O)c1c(C)[nH]c(C)c1C(=O)COC(=O)c1cc(OC)cc(OC)c1,inconclusive: -46.5% [cytotoxic] [at 0.00295 µM],
CC(C)(C)c1ccc(S(=O)(=O)NCCc2ccncc2)cc1,inconclusive: -1.08%,
Cn1c(N)c(C(=O)Nc2cccc(Cl)c2)c(=O)n(C)c1=O,,"inconclusive: 0.259 µM [activator, partial curve, poor fit]"
O=C(NCC(c1ccco1)N1CCN(c2ccc(F)cc2)CC1)C(=O)NC1CCCC1 (stereo unspecified),inconclusive: -10.1%,
CC(C)(C)NC(=O)C(c1ccncc1)N(C(=O)Cn1nnc(-c2cccs2)n1)C1CCCCC1 (stereo unspecified),,"inconclusive: 8.2 µM [activator, partial curve, poor fit]"
COc1cc(OC)cc(C(=O)N[C@H](C(=O)OCC(=O)NC(=O)NC(C)(C)C)C(C)C)c1,,"inconclusive: 0.146 µM [falling, single point]"
OC(COc1ccccc1)CN1CCCC1 (stereo unspecified),inconclusive: -39.5%,
CCn1c(SCC(=O)N2CCCCC2C)nc2c1c(=O)n(C)c(=O)n2C (stereo unspecified),inconclusive: -22.6%,
COc1ccc(N2CCOCC2)c(NC(=O)c2ccco2)c1,inconclusive: -184%,
Cc1ccc(OCCCCn2ccnc2)c(Cl)c1,,"inconclusive: 6.51 µM [activator, partial curve]"
CCC(C)(C)n1nnnc1CN1CCC(c2nc3ccc(C)cc3[nH]2)CC1,inconclusive: 9.59% [at 9.22 µM],
COc1cc2c(cc1OC)C(C)N(C(=O)c1cc3n(n1)C(C(F)(F)F)CC(c1ccco1)N3)CC2 (stereo unspecified),,"inconclusive: 29.1 µM [falling, single point]"
Cc1csc(=O)n1CC(=O)OC(C)C(=O)Nc1cccc(Cl)c1 (stereo unspecified),inconclusive,
COc1cc2c(cc1OC)C(c1ccccc1)CC2=O (stereo unspecified),inconclusive: -6.4%,
CCc1ccc(NC(=O)c2sc3nc4n(c(=O)c3c2C)CCC4)cc1,,active: 2.31 µM
O=C(CSc1ccc(-c2ccco2)nn1)NC1CCCCC1,inconclusive: 3.26%,
CN1C(=O)CC(c2ccccc2)C1=O (stereo unspecified),inconclusive: 5.82%,
CC1CCN(CCCNC(=O)C2CCC(CNS(=O)(=O)c3ccccc3)CC2)CC1 (stereo unspecified),,"inconclusive: 10.3 µM [activator, partial curve]"
Cc1onc(-c2ccccc2)c1C(=O)Nc1sccc1C#N,,"inconclusive: 6.51 µM [falling, partial curve, poor fit]"
Nc1cnc(-c2ccccc2)nc1Cl,inconclusive: 21%,

# Rewritten bar-delimited: part of the list above
Compound | lipid storage change, negative = inhibition | Potency
CN1C(=O)CC(c2ccccc2)C1=O (stereo unspecified) | inconclusive: 5.82% | 
CC1CCN(CCCNC(=O)C2CCC(CNS(=O)(=O)c3ccccc3)CC2)CC1 (stereo unspecified) |  | inconclusive: 10.3 µM [activator, partial curve]
Cc1onc(-c2ccccc2)c1C(=O)Nc1sccc1C#N |  | inconclusive: 6.51 µM [falling, partial curve, poor fit]

# Going on with the list:

Compound,"lipid storage change, negative = inhibition",Potency
Cc1cc(SCC(=O)Nc2c(C)n(C)n(-c3ccccc3)c2=O)nc2ccccc12,,"inconclusive: 29.1 µM [activator, single point]"
Cc1nnc(SCC(=O)N(C2CCCCC2)C2CCS(=O)(=O)C2)n1C (stereo unspecified),inconclusive: -41.7%,
O=[N+]([O-])c1ccc(-c2nnc(-c3ccccc3)c(N3CCOCC3)n2)cc1,inconclusive: -21.4%,
Cc1cccc(C)c1NC(=O)CNC(=O)CCNC(=O)c1ccco1,inconclusive: -11.2%,
O=C(CNC(=O)c1ccc(Br)cc1)NCC(=O)OCc1ccc(Cl)cc1,inconclusive: -22.8%,
CCOC(=O)N1CCN(C(=O)c2c[nH]c3ccc(S(=O)(=O)N(C)c4cccc(C)c4)cc3c2=O)CC1,inconclusive: -46.5%,
CCOC(=O)c1c(C)[nH]c(C(=O)CN2CC(C)OC(C)C2)c1C (stereo unspecified),inconclusive: 0.0606%,
O=C(Nc1cccc(F)c1)c1ccc(Br)o1,inconclusive: -0.314%,
CC(=O)Nc1cccc(OCC(=O)NS(=O)(=O)c2ccc(C)cc2)c1,inconclusive: -15.8%,
COc1ccc(NC2CCCN(C(=O)CN3CCOC3=O)C2)cc1OC (stereo unspecified),inconclusive: 29.8%,
C=CCOc1ccc(/C=C(\C#N)C(=O)Nc2ccccn2)cc1,inconclusive: 0.304%,
O=C1CN(S(=O)(=O)c2ccc(F)cc2)c2ccccc2N1,inconclusive: -37.6%,
CCc1nccn1CCC(=O)N1CCCC(Nc2ccc(C(C)C)cc2)C1 (stereo unspecified),inconclusive: 21.4%,
COC(=O)c1cnc2c(C(F)(F)F)cccc2c1OC,inconclusive: 25.7%,
Cc1cc2cc(CNS(=O)(=O)c3ccc4ccccc4c3)ccc2n1C,,"inconclusive: 10.3 µM [falling, partial curve]"
O=c1[nH]c(CN2CCN(S(=O)(=O)/C=C/c3ccccc3)CC2)nc2ccccc12,,"inconclusive: 1.84 µM [activator, full curve]"
COc1cccc(CNc2ccc3[nH]c(=O)[nH]c3c2)c1OCc1ccccc1,inconclusive: 7.39%,
COc1ccc(CC(=O)OCC(=O)Nc2cccc(Br)c2)cc1,inconclusive: 42.5%,
O=C(CN1C(=O)NC2(CCCCC2)C1=O)Oc1ccc2c(C(F)(F)F)cc(=O)oc2c1,inconclusive,
Cc1cnc(C(=O)Nc2ccc(C(=O)N3CCCCC3)cc2)cn1,inconclusive: -7.71%,
C[C@@H](C(=O)NCCc1c[nH]c2ccccc12)[C@H]1C[C@]1(C)[C@H](NC(=O)OCc1ccccc1)c1ccccc1,inconclusive: 19.5%,
CC(NC(=O)CSc1nnc(-c2cccnc2)n1N)c1ccccc1 (stereo unspecified),inconclusive: 13.7%,
CCOc1ccc(NC(=O)Cn2nnc3c(cnn3-c3ccc(F)cc3)c2=O)cc1,inconclusive: -58.8%,
Cc1ccc(S(=O)(=O)N2CCCCCC2)cc1[N+](=O)[O-],inactive: -26%,
CC1CCCN(CCCNS(=O)(=O)c2ccc3c(c2)CCN3C(=O)C2CC2)C1 (stereo unspecified),,"inconclusive: 25.9 µM [activator, partial curve, poor fit]"
